Source: publication PMC7862700
This is a selection; strong and weak results do not stand in their true shares. At the low end of the ranking, values are background and their order means little.

Chains of the proteins cited; added tags and fusions are not shown. Lines headed by an entry give the natural chain unless they say otherwise; changes in a name come on top.
UniProt O43186: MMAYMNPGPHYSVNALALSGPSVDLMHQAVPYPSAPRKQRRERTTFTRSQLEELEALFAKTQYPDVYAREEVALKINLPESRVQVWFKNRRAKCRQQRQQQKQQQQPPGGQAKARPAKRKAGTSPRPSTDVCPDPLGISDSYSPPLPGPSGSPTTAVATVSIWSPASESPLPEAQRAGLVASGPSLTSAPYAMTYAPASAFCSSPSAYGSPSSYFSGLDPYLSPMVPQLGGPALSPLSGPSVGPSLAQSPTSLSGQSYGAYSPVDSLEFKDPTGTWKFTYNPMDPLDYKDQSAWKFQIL

Legend:
Experiment in all cases: DAPPL (digital affinity profiling via proximity ligation, sequencing)
Conditions in all cases: 10 mM Tris-HCl pH 7.5, 50 mM NaCl, 1 mM DTT, 4% glycerol, room temperature, 30 min; GST-TFs on glutathione beads, 16-mer random dsDNA library, 0.1% …; high values mean tight binding; double strand, one strand shown; scale: fold enrichment (6-mer frequency, TF over GST control)
FEV = biological target: T1, FEV (UniProt Q99581)
T1 sequence: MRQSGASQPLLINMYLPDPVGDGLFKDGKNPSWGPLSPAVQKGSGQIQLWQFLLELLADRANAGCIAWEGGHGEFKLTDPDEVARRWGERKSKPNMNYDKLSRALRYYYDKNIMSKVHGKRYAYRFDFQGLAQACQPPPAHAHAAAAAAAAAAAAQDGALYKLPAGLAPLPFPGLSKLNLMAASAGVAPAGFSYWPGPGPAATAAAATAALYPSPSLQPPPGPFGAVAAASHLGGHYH

CRX = CRX (UniProt O43186)
ELF5 = biological target: T2, ELF5 (UniProt Q9UKW6-2)
T2 sequence: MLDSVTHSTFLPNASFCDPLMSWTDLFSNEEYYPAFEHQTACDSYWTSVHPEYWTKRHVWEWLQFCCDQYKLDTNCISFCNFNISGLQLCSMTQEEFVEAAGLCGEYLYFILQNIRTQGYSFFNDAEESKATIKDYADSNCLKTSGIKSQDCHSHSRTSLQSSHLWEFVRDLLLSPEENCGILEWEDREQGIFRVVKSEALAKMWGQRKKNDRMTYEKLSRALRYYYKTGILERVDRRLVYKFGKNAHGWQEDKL

Sequence	binding signal (FEV)	binding signal (CRX)	binding signal (ELF5)
GGTACC	0.797	0.497	0.799
AGGGAG	0.345	0.31	0.344
GGTGCT	0.858	0.758	0.866
TGTCGT	0.746	0.642	0.925
AGCCAT	0.875	0.939	0.797
GGAGAA	0.31	0.301	0.32
GAGTAA	0.524	0.622	0.548
GCCAAG	0.84	0.756	0.808
TCGTGT	0.717	0.718	0.757
GGGGAC	0.472	0.326	0.464
GAACGA	0.743	0.683	0.744
CAGCAG	0.834	0.632	0.757
AGTTCG	0.743	0.645	0.705
GAACCG	0.857	0.466	0.711
AGCCGG	0.633	0.495	0.574
GTGCGT	0.565	0.422	0.581
GTGCCA	0.807	0.587	0.745
GATAGG	0.771	0.825	0.775

Sequence	binding signal (FEV)	binding signal (CRX)	binding signal (ELF5)
GACTAA	0.886	1.44	0.885
CAGCGG	0.486	0.352	0.41
TCAGCG	0.864	0.805	0.678
GGTAGG	0.648	0.497	0.636
GTCGAA	0.614	0.569	0.592
GGTTAG	0.752	0.723	0.735
GGTCAG	0.539	0.429	0.519
GAGAAG	0.661	0.698	0.721
GCTGGG	0.761	0.67	0.764
GTTGGG	0.684	0.564	0.719
CTGTGA	0.506	0.44	0.466
GCCACG	0.954	0.745	0.9
GGATTG	0.741	1.12	0.836
GGCGAT	0.812	0.91	0.764
GTGAAG	0.544	0.471	0.514
AGTAGA	0.731	0.756	0.75
AAGCGT	0.839	0.893	0.879
AGGTAG	0.66	0.544	0.676

Single values from above:
Under binding signal (FEV), GAGAAG has the entry 0.661
Under binding signal (ELF5), GCCACG has the entry 0.9
